Data as given in PMC5058708.
No constants are given. Whether binding was seen depends on the method and setting. In cells and extracts the contact can be indirect. Some results given as binding are weak or reduced against the parent protein; the word gives no strength. Blank lines part the entries; values can stand above or below the molecule they belong to.

Amino acid sequences for entries named in this document (tags omitted).
UniProt P18266: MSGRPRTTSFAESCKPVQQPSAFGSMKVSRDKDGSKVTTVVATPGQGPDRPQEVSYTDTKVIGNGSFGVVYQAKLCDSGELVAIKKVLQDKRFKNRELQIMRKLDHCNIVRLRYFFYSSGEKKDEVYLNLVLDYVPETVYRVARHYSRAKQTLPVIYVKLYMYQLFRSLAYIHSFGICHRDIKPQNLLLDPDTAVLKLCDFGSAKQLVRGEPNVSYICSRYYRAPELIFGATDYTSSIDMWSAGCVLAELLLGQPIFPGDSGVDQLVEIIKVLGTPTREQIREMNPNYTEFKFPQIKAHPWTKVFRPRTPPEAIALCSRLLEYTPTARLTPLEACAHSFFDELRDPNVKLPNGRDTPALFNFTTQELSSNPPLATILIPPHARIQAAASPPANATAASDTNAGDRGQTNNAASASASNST
UniProt Q07936: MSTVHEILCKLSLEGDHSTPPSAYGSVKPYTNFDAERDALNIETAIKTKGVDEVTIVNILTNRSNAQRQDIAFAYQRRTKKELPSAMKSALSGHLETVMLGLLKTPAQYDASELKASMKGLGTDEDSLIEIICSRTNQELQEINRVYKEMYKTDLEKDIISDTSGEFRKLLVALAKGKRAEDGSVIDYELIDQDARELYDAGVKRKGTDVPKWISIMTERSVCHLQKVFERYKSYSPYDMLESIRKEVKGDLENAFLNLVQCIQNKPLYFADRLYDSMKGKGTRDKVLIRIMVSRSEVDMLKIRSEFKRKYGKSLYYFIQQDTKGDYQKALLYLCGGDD
UniProt P31977: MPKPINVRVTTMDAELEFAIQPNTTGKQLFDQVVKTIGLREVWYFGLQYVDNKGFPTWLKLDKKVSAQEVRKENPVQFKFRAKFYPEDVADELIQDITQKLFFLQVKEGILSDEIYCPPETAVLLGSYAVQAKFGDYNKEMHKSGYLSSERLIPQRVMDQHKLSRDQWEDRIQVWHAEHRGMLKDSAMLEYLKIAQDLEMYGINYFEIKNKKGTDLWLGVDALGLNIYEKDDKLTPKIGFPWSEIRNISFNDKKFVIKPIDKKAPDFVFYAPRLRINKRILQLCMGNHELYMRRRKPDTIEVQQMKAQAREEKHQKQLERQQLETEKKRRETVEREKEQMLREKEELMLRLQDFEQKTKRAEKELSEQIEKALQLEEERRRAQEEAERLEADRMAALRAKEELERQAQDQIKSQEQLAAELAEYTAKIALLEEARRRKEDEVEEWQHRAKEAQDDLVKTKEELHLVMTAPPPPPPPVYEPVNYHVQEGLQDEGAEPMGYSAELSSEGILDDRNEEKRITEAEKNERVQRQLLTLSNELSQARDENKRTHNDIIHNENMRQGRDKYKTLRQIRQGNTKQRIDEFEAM
UniProt P61589: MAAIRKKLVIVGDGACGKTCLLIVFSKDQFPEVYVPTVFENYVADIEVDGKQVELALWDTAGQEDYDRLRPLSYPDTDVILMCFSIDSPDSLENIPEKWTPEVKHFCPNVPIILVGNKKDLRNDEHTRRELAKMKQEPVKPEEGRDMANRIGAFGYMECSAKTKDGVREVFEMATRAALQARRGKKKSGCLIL
UniProt O54857: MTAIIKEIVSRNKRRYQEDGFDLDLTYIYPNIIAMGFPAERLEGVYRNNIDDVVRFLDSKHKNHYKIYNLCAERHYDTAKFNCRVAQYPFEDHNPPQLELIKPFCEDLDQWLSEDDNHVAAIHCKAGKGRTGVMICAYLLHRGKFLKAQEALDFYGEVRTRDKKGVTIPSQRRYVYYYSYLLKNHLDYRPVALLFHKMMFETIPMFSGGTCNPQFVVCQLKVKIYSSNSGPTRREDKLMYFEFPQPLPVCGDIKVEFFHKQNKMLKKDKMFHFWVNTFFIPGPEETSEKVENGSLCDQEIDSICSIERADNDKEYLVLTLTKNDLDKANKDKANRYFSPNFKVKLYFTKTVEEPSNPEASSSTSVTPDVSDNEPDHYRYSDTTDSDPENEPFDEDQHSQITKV
UniProt M0R702: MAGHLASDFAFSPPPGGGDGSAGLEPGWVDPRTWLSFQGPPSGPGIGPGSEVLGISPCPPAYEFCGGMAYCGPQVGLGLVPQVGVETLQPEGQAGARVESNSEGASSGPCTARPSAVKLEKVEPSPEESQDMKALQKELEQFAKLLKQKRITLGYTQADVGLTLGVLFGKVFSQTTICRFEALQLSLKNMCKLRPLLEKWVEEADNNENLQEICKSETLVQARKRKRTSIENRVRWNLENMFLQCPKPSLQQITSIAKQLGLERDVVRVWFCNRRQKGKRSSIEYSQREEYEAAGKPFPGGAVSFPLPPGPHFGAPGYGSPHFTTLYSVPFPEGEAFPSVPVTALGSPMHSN

Columns and labels:
[1] = target: T1, claudin7 (rat (endogenous in ASML)) (UniProt Q9Z1L1); assay: co-IP; lysates of wt, kd and rescue ASML clones; HEPES buffer, 1% Lubrol, 30 min at 4°C; antibody 1 h at 4°C, ProteinG-Sepharose 1 h; SDS-PAGE and Western blot
T1 sequence (chain, palmitoylated (palmitoylation is prevented by mutating AA184 and AA186)): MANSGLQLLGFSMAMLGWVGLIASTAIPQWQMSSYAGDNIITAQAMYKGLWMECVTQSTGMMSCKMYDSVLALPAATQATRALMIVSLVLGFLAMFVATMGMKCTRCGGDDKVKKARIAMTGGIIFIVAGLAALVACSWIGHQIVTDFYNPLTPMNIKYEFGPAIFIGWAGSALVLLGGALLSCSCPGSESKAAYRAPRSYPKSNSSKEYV

[2] = target: GSK3β (rat (endogenous in ASML)) (UniProt P18266); assay: as above
[3] = target: T2, EpCAM (rat (endogenous in ASML)) (UniProt O55159); assay: co-IP; lysates of ASML^wt and -cld7^mPalm exosomes (1% Lubrol) precipitated with anti-cld7, -EpC, -CD44v6, -Tspan8 or -α6β4; Western blot
T2 sequence: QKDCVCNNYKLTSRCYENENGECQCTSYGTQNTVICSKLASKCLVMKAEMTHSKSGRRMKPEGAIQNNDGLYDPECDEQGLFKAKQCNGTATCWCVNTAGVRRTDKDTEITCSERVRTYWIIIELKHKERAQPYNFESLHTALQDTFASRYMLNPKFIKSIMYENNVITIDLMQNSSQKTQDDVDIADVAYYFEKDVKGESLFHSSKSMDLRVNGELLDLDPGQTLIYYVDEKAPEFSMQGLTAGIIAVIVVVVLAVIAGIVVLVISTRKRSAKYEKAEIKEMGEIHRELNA

[4] = target: AnnII (rat (endogenous in ASML)) (UniProt Q07936); assay: co-IP; lysates of wt, kd and rescue ASML clones; HEPES buffer, 1% Lubrol, 30 min at 4°C; antibody 1 h at 4°C, ProteinG-Sepharose 1 h; SDS-PAGE and Western blot
[5] = target: T3, Lamp1 (rat (endogenous in ASML)) (UniProt P14562); assay: as above
T3 sequence: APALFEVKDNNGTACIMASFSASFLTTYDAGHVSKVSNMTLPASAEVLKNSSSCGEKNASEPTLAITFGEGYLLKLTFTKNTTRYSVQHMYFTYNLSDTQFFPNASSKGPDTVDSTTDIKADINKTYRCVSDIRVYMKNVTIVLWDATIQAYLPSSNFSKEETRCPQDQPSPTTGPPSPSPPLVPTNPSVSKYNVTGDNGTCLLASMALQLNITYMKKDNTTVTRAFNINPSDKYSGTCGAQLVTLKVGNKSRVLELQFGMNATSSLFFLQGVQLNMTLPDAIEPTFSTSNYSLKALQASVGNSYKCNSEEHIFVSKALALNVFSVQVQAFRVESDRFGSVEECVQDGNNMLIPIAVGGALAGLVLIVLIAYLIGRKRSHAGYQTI

[6] = target: ezrin (rat (endogenous in ASML)) (UniProt P31977); assay: as above
[7] = target: T2, EpCAM (rat (endogenous in ASML)); assay: as above

Molecule: RhoA (from UniProt P61589 1-193)
binding [1]: binds

Molecule: Pten (from UniProt O54857 1-403) (enzyme)
binding [2]: binds weakly

Now from value to molecule:

binding [1]: no binding
Molecule: Oct3/4 (from UniProt M0R702 1-352)

binding [3]: binds
binding [4]: binds
binding [5]: binds
binding [6]: binds
binding [7]: binds
B1: claudin7 (protein, UniProt Q9Z1L1 1-211)
chain: T1 sequence (chain, palmitoylated (palmitoylation is prevented by mutating AA184 and AA186))
modifications: palmitoylated (palmitoylation is prevented by mutating AA184 and AA186)
